Test results: patent US20010006794A1, “SCREENING FOR MODULATORS OF BIOMOLECULES” (priority 1995, published 2001)

Tests used:
[1] = test system: Salmonella typhimurium temperature sensitive mutant gyrA212 (strain 7533); type: cell-based
From the text: A Salmonella typhimurium parent strain 7389 was used to form a collection of temperature sensitive mutants. […] Complementation of the mutant phenotype was done. In the case of the three mutants described in the data of this figure (gyrA202, gyrA208, gyrA212) the complemented mutants were identified to be in the A subunit of the bacterial DNA gyrase enzyme. Each mutant was altered in a different portion (see number of mutant) of the A subunit. NB. the A subunit is the protein to which flouroquinolones (e.g. ciprofloxacin, norfloxacin) interact to bring about their antimicrobial activity. […] The data are expressed as fold increases in susceptibility. A four-fold increase in susceptibility is the minimum change to be considered significant in this example.
Referring to FIG. 1, the experiments were essentially by the methods outlined by the National Committee for Clinical Laboratory Standards (NCCLS). Bacteria were grown in Mueller-Hinton (MH) broth with agitation at 30° C.
The antibiotic dilution ranges used were:
Novobiocin: Range 128-0 μg/ml. Coumermycin A1: Range 128-0 μg/ml. Ciprofloxacin: Range 0.5-0 μg/ml. Norfloxacin: Range 8-0 μg/ml. Mitomycin C: Range 8-0 μg/ml Phenylmercuric acetate: Range 32-0 μg/ml. 4-Nitroquinoline Oxide: Range 32-0 μM Rifampicin: Range 128-0 μg/ml. Gentamicin: Range 32-0 μg/ml. Streptomycin: Range 128-0 μg/ml. Cefotaxime: Range 8-0 μg/ml. Ampicillin: Range 32-0 μg/ml. […]

[2] = test system: Salmonella typhimurium wild type; type: cell-based
Procedure: Preliminary characterization of the utilization of large numbers of carbon sources can be carried out using manual or automated taxonomic screening devices, such as the Biolog MT, ES, GN or GP Microplate™. Alternatively, this can be performed using commercially available components. […] Briefly, strains were swabbed onto TSA plates and grown at a permissive temperature of 30° C. for 6 hours to provide an inoculum. The inoculum (MacFarland standard ˜1 in 0.89% sterile saline solution) was prepared as per Biolog “Instructions for Use” handbook, with the exception that leucine was added to correct for mutants housed in strains which were in a leucine-deficient background. Inoculum was added to Biolog GN or ES plates and incubated at the semipermissive temperature of 35° C. overnight (˜21 hr). Carbon source utilization is read colorimetrically in a microplate reader at 600 nm. Substrates that are not used similarly by wild-type and mutant are identified. […] Typically, these steps were performed using Biolog MT plates or by using a redox indicator (such as tetrazolium violet, 0.0001%) in a minimal medium with a sole carbon source (substrate being tested), supplemented with a small amount of tryptone (0.06%) or proteose peptone (0.2%). It was possible to do this in 96-well microtiter plate format, which will be adaptable to high throughput or multichannel screening.

Compound: O=C(O)c1cn(C2CC2)c2cc(N3CCNCC3)c(F)cc2c1=O [ciprofloxacin]
- fold increase in susceptibility [1]: 8 fold
- utilization of formic acid as carbon source marker [2]: affected
